Source: the supplement of paper PMC6078165

System: MDAMB436
Assay: relative JC-1 red fluorescence (viability) vs pre-drug, coculture with fibroblast (fraction); higher = more viable cancer cells
Method: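 JC-1 labelled TNBC cells cocultured 1:1 (1,500 cells each) with CellTrace Violet stained primary or stromal fibroblasts in 384-well plates in FluoroBrite medium, treated with one of 42 anticancer drugs at 0.1, 1, 10 or 100 uM. JC-1 red fluorescence (mitochondrial integrity in cancer cells only) was read by plate reader every 8 h for 72 h. Values are normalised to each well's pre-drug value. The stock of one drug was tenfold lower, so its dose labels may be too high.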

COc1cc([C@@H]2c3cc4c(cc3[C@@H](O[C@@H]3O[C@@H]5CO[C@@H](C)O[C@H]5[C@H](O)[C@H]3O)[C@H]3COC(=O)[C@H]23)OCO4)cc(OC)c1O [Etoposide]
relative JC-1 red fluorescence
Settings	8 h	16 h	24 h	32 h	40 h	48 h	56 h	64 h	72 h
10 µM, coculture fibroblast: C12385	0.789	0.7416	0.7436	0.67	0.636	0.619	0.61	0.6	0.598
10 µM, coculture fibroblast: H6013	0.858	0.8169	0.817	0.8143	0.817	0.844	0.798	0.786	0.741
10 µM, coculture fibroblast: H6019	0.773	0.712	0.674	0.609	0.575	0.56	0.526	0.499	0.486
10 µM, coculture fibroblast: H6076	0.663	0.601	0.596	0.555	0.56	0.535	0.556	0.556	0.551
10 µM, coculture fibroblast: H6231	0.648	0.564	0.59	0.507	0.498	0.476	0.484	0.464	0.456
10 µM, coculture fibroblast: HADF	0.807	0.755	0.747	0.725	0.712	0.751	0.683	0.685	0.644
10 µM, coculture fibroblast: HCFa	0.814	0.805	0.807	0.801	0.805	0.844	0.783	0.788	0.741
10 µM, coculture fibroblast: HCPF	0.661	0.611	0.636	0.588	0.593	0.574	0.578	0.572	0.569
10 µM, coculture fibroblast: HHSteC	0.8218	0.805	0.792	0.767	0.771	0.794	0.74	0.732	0.685
10 µM, coculture fibroblast: HMF	0.624	0.565	0.554	0.508	0.515	0.487	0.506	0.493	0.497
10 µM, coculture fibroblast: HPFa	0.8573	0.821	0.811	0.782	0.794	0.822	0.757	0.746	0.69
10 µM, coculture fibroblast: HUF	0.8153	0.7514	0.7319	0.664	0.608	0.589	0.5714	0.5624	0.559
10 µM, coculture fibroblast: Hs5	0.68	0.655	0.661	0.614	0.61	0.578	0.603	0.578	0.585
10 µM, coculture fibroblast: Hs27A	0.8074	0.761	0.753	0.743	0.741	0.827	0.75	0.763	0.702
10 µM, coculture fibroblast: Hs343T	0.689	0.649	0.63097	0.587	0.584	0.551	0.545	0.54	0.542
10 µM, coculture fibroblast: WS1	0.773	0.709	0.689	0.607	0.571	0.55	0.536	0.518	0.511
100 µM, coculture fibroblast: C12385	0.793	0.775	0.7852	0.728	0.694	0.691	0.684	0.68	0.6845
100 µM, coculture fibroblast: H6013	0.841	0.834	0.837	0.845	0.8316	0.865	0.83	0.823	0.785
100 µM, coculture fibroblast: H6019	0.772	0.744	0.7472	0.7085	0.691	0.701	0.685	0.69	0.692
100 µM, coculture fibroblast: H6076	0.718	0.64335	0.669	0.638	0.63	0.6158	0.636	0.64	0.648
100 µM, coculture fibroblast: H6231	0.759	0.674	0.788	0.727	0.739	0.732	0.745	0.745	0.744
100 µM, coculture fibroblast: HADF	0.856	0.832	0.822	0.806	0.805	0.829	0.774	0.767	0.72
100 µM, coculture fibroblast: HCFa	0.8226	0.809	0.805	0.801	0.816	0.854	0.806	0.821	0.785
100 µM, coculture fibroblast: HCPF	0.6896	0.66518	0.704	0.661	0.657	0.643	0.636	0.638	0.638
100 µM, coculture fibroblast: HHSteC	0.8295	0.835	0.837	0.824	0.837	0.874	0.82	0.814	0.772
100 µM, coculture fibroblast: HMF	0.729	0.672	0.679	0.642	0.631	0.608	0.614	0.602	0.601
100 µM, coculture fibroblast: HPFa	0.88749	0.873	0.879	0.853	0.876	0.901	0.834	0.826	0.775
100 µM, coculture fibroblast: HUF	0.833	0.7827	0.794	0.73691	0.708	0.698	0.6863	0.6844	0.6871
100 µM, coculture fibroblast: Hs5	0.768	0.7165	0.7219	0.6747	0.66	0.619	0.622	0.604	0.593
100 µM, coculture fibroblast: Hs27A	0.846	0.835	0.855	0.872	0.87	0.912	0.899	0.914	0.85
100 µM, coculture fibroblast: Hs343T	0.732	0.651	0.641	0.606	0.5808	0.548	0.54	0.5342	0.5239
100 µM, coculture fibroblast: WS1	0.778	0.747	0.758	0.701	0.684	0.686	0.682	0.679	0.688

The reference is the same well before dosing, and untreated signal decays as well.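 Fibroblast labels name human fibroblasts: mostly primary ones from tissues such as uterus (C12385, HUF), lung (H6013), bone (Hs27A), adrenal (HADF) and skin (WS1), plus mammary HMF and breast cancer-associated Hs343T. The cancer cells are basal-like or mesenchymal-like triple-negative breast cancer lines. The paper calls a changed response a hit when it shifts by more than 3x the replicate standard deviation. The tissue of the other fibroblasts is not given here.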
